# Reference: US4886817A, “Imidazolidinones as brain activators” (Tanabe Seiyaku Co., Ltd., priority 1986, dated 1989)
# Some entries share one result that the patent states for a list of compounds.
# Experiment: Preventive effect on KCN induced cerebral anoxia
# Format: in vivo, male Std/ddY mice
# Conditions: 100 mg/kg, oral, 1 hour before KCN 2.4 mg/kg i.v.; for death in mice tested (KCN): 5 mice per group
Compound,death in mice tested (KCN),prolongation of survival time of mice suffered from KCN induced cerebral anoxia
"O=C1N(C/C=C/c2ccc(Cl)cc2)CCN1c1cccnc1 [compound 1, (E)-1-(4-chlorocinnamyl)-3-(3-pyridyl)-2-imidazolidinone]",no death was observed in any of the mice tested,excellent prolongation of the survival times
"O=C1N(C/C=C/c2ccc(Cl)cc2)CCN1c1ccncc1 [compound 2, (E)-1-(4-chlorocinnamyl)-3-(4-pyridyl)-2-imidazolidinone]",no death was observed in any of the mice tested,excellent prolongation of the survival times
"Cl.O=C1N(C/C=C/c2ccccc2)CCN1c1cccnc1 [compound 3, (E)-1-cinnamyl-3-(3-pyridyl)-2-imidazolidinone hydrochloride]",no death was observed in any of the mice tested,excellent prolongation of the survival times
"O=C1N(C/C=C/c2ccccc2)CCN1c1ncccn1 [compound 4, (E)-1-cinnamyl-3-(2-pyrimidinyl)-2-imidazolidinone]",no death was observed in any of the mice tested,excellent prolongation of the survival times
"O=C1N(C/C=C/c2cccc(Cl)c2)CCN1c1ccncc1 [compound 5, (E)-1-(3-chlorocinnamyl)-3-(4-pyridyl)-2-imidazolidinone]",no death was observed in any of the mice tested,excellent prolongation of the survival times
"O=C1N(C/C=C/c2ccccc2Cl)CCN1c1ccncc1 [compound 6, (E)-1-(2-chlorocinnamyl)-3-(4-pyridyl)-2-imidazolidinone]",no death was observed in any of the mice tested,excellent prolongation of the survival times
"Cc1cccc(/C=C/CN2CCN(c3ccncc3)C2=O)c1 [compound 7, (E)-1-(3-methylcinnamyl)-3-(4-pyridyl)-2-imidazolidinone]",no death was observed in any of the mice tested,excellent prolongation of the survival times
"O=C1N(CCC/C=C/c2ccccc2)CCN1c1ccncc1 [compound 8, (E)-1-(5-phenyl-4-pentenyl)-3-(4-pyridyl)-2-imidazolidinone]",no death was observed in any of the mice tested,excellent prolongation of the survival times
"O=C1N(C/C=C\c2ccccc2)CCN1c1ccncc1 [compound 9, (Z)-1-cinnamyl-3-(4-pyridyl)-2-imidazolidinone]",no death was observed in any of the mice tested,excellent prolongation of the survival times
